According to the supplement of paper PMC4371806:
The full ranking holds about 2,300 compounds; the median of “plate-normalized OD600 growth (mean of duplicates)” is about 0.29, and the lowest 2% start at about 0.22. Some of the results follow.

Test system: Escherichia coli BW25113
Assay: plate-normalized OD600 growth (mean of duplicates) (OD600 (normalized)); higher = more growth (less inhibition)
Details: 10 µM
Experimental: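 E. coli BW25113 in LB (100 µl, 96-well, no shaking) was exposed to 10 µM of each compound from a ~30,000-member library and grown at 37°C for 24 h or 15°C for 48 h, in duplicate. Growth was read as OD600 and the duplicate ODs were normalized across screening plates to correct plate-to-plate variation. Hits were >3σ below the mean OD600 at 15°C and <2σ below the mean at 37°C.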

Compound | plate-normalized OD600 growth (temperature: 15°C, 48 h) | plate-normalized OD600 growth (temperature: 37°C, 24 h)
Cc1cc(C2=CSC3=NCCN23)ccc1Cl | 0.238 | 0.623
O=C1c2ccccc2C(=O)N1/N=C/c1ccc(Oc2ccc([N+](=O)[O-])cn2)cc1 | 0.266 | 0.636
O=c1[nH]c2cccnc2[nH]c1=O | 0.233 | 0.617
Cc1ccc(NC(=O)c2c(F)cccc2Cl)c(C(=O)Nc2ccc(F)cc2)c1 | 0.265 | 0.617
CC1Cn2c(nnc2-c2cccc(O)c2)S1 (centres undefined) | 0.247 | 0.622
COc1cccc(-c2cc(C(F)(F)F)nc(SC3CC(=O)C4OCC3O4)n2)c1 (centres undefined) | 0.238 | 0.614
CC12c3ccccc3C(c3ccccc31)C1C(=O)N(Cc3cccnc3)C(=O)C12 (centres undefined) | 0.241 | 0.618
CCOC(=O)N/N=C\c1cccs1 | 0.263 | 0.63
Cc1ccccc1OCC(=O)Nc1cccc(N2C(=O)c3ccccc3C2=O)c1 | 0.235 | 0.661
N#CC1=C(c2ccc(Cl)cc2)Sc2nnc(C(F)(F)F)n2N=C1N | 0.255 | 0.611
CCOC(=O)c1cnc(SCC(=O)c2ccc(Cl)cc2Cl)[nH]1 | 0.244 | 0.618
NC(=O)CCCCCCCCCC(Cc1ccccc1)C(=O)O (centres undefined) | 0.246 | 0.623
Clc1ccc(OCc2cn3ccccc3n2)c2ncccc12 | 0.251 | 0.612
COc1ccc(C(=O)NC(N2CCCCC2c2cccnc2)(C(F)(F)F)C(F)(F)F)cc1 (centres undefined) | 0.256 | 0.616
O=C(OCCN1CCOCC1)c1ccccc1Br | 0.244 | 0.629
CC(=O)NC(=O)/C(C#N)=C/N1CCN(Cc2ccccc2)CC1 | 0.253 | 0.611
CC(C)(CNc1ccc([N+](=O)[O-])cc1Cl)CNS(C)(=O)=O | 0.245 | 0.605
Cc1cc(S(=O)(=O)n2nnc3ccccc32)c(C)cc1Br | 0.244 | 0.63
Cc1nnc(N/N=C(\CCC(=O)O)C(=O)O)[nH]c1=O | 0.242 | 0.603
COC(=O)c1ccccc1CSc1nccc(C(F)(F)F)n1 | 0.248 | 0.615
COc1ccc(C2(CNS(=O)(=O)c3ccc(C)cc3)CCOCC2)cc1 | 0.251 | 0.645

Compound | plate-normalized OD600 growth (temperature: 15°C, 48 h) | plate-normalized OD600 growth (temperature: 37°C, 24 h)
O=S(=O)(c1cccc2nsnc12)N1CCC(Cc2ccccc2)CC1 | 0.236 | 0.614
Oc1c(F)cccc1C=Nc1ccc(N2CCOCC2)cc1 | 0.234 | 0.619
CCCCOc1cc(C(=O)O)ccc1OC | 0.261 | 0.64
Cc1cc(C(F)(F)F)nn1CC(=O)Nc1ccc(CC#N)cc1 | 0.252 | 0.612
O=C(CSc1ccccn1)Nc1ncc(Br)cc1Br | 0.239 | 0.635
O=c1nc(-c2ccccc2)nc(-c2ccccc2)[nH]1 | 0.26 | 0.617
CCCCOc1ccc(N2C(=O)CC(N3CCN(c4cccc(C(F)(F)F)c4)CC3)C2=O)cc1 (centres undefined) | 0.253 | 0.61
CC(=O)c1csc([N+](=O)[O-])c1 | 0.22 | 0.616
O=[N+]([O-])c1cc(Oc2cccc(Cl)c2)c2c(c1)Oc1ccccc1C=C2 | 0.235 | 0.565
CCOC(=O)c1cc(CN2CCOCC2)c(C)o1 | 0.237 | 0.614
COc1ccc(C(=O)NN2C(=O)C3C(C2=O)C2C=CC3C23CC3)cc1 (centres undefined) | 0.249 | 0.604
COc1ccc(S(=O)(=O)n2ccnc2C)cc1 | 0.251 | 0.62
S=c1[nH]nc(-c2ccncc2)n1-c1ccccc1 | 0.239 | 0.621
Cc1ccc(-c2cc(C(F)(F)F)n3nc(C(=O)N(C)Cc4ccccc4)cc3n2)cc1 | 0.252 | 0.638
CCOC(=O)C(=CNNc1ccnc2cc(Cl)ccc12)C(=O)OCC | 0.26 | 0.616
Cc1cc(=O)oc2cc(NC=C3C(=O)OC(C)(C)OC3=O)ccc12 | 0.247 | 0.599
O=C(NCCc1ccc(Cl)cc1)C(=O)NCC1CCCO1 (centres undefined) | 0.252 | 0.629
CCN(CC)c1ccc(/C=N/n2cnnc2)c(OCc2ccc(Cl)cc2)c1 | 0.248 | 0.63
COc1cc(C=Nc2c(C)nn(-c3ccc([N+](=O)[O-])cc3)c2C)ccc1O | 0.262 | 0.623
Cc1cc(C)c(C#N)c(SC2CC(=O)N(c3ccccc3)C2=O)n1 (centres undefined) | 0.24 | 0.609
CCn1c(=O)c(-c2[nH][nH]c(=O)c2C=C2C(=O)Nc3ncccc3C2=O)c(O)c2ccccc21 | 0.247 | 0.607

A section from further up, for reference:
Compound | plate-normalized OD600 growth (temperature: 15°C, 48 h) | plate-normalized OD600 growth (temperature: 37°C, 24 h)
O=C(CSc1ccccn1)Nc1ncc(Br)cc1Br | 0.239 | 0.635
O=c1nc(-c2ccccc2)nc(-c2ccccc2)[nH]1 | 0.26 | 0.617
CCCCOc1ccc(N2C(=O)CC(N3CCN(c4cccc(C(F)(F)F)c4)CC3)C2=O)cc1 (centres undefined) | 0.253 | 0.61
CC(=O)c1csc([N+](=O)[O-])c1 | 0.22 | 0.616
O=[N+]([O-])c1cc(Oc2cccc(Cl)c2)c2c(c1)Oc1ccccc1C=C2 | 0.235 | 0.565
CCOC(=O)c1cc(CN2CCOCC2)c(C)o1 | 0.237 | 0.614
COc1ccc(C(=O)NN2C(=O)C3C(C2=O)C2C=CC3C23CC3)cc1 (centres undefined) | 0.249 | 0.604
COc1ccc(S(=O)(=O)n2ccnc2C)cc1 | 0.251 | 0.62
S=c1[nH]nc(-c2ccncc2)n1-c1ccccc1 | 0.239 | 0.621
Cc1ccc(-c2cc(C(F)(F)F)n3nc(C(=O)N(C)Cc4ccccc4)cc3n2)cc1 | 0.252 | 0.638
CCOC(=O)C(=CNNc1ccnc2cc(Cl)ccc12)C(=O)OCC | 0.26 | 0.616

The results go on:

Compound | plate-normalized OD600 growth (temperature: 15°C, 48 h) | plate-normalized OD600 growth (temperature: 37°C, 24 h)
CCn1c(=O)c(-c2[nH][nH]c(=O)c2C=Nc2ncccn2)c(O)c2ccccc21 | 0.254 | 0.619
Cc1ccc(COc2ccc(C)nc2[N+](=O)[O-])cc1 | 0.233 | 0.637
CCC(=O)Nc1nc(-c2ccc(Cl)c(Cl)c2)nc2c1c(=O)oc1ccccc12 | 0.249 | 0.614
N#Cc1ccccc1OCC(=O)C1CC1 | 0.242 | 0.621
CCOC(=O)c1c(CN2CCN(Cc3oc4ccc(OC)cc4c3C(=O)OCC)CC2)oc2ccc(OC)cc12 | 0.247 | 0.62
COc1cc(S(=O)(=O)N2CCN(Cc3ccc4c(c3)OCO4)CC2)c(C)cc1C | 0.241 | 0.64
O=C(O)CCCN1C(=O)C(=O)C(=C(O)c2ccccc2)C1c1ccc(Br)cc1 (centres undefined) | 0.226 | 0.646
COc1ccc2ccccc2c1/C=C1/C=C(c2ccccc2)OC1=O | 0.241 | 0.648
COC(=O)c1ccccc1-n1cccc1C(=O)OC | 0.266 | 0.616
CCOC(=O)c1c(CN2CCN(C(=O)OCC)CC2)n(-c2ccccc2)c2ccc(O)cc12 | 0.25 | 0.652
COc1ccc(OC)c(/C=C2\C(=N)N3N=C(C)SC3=NC2=O)c1 | 0.26 | 0.637
CCCOc1ccc(/C=N/Nc2nc(=O)[nH]nc2C)cc1OC | 0.254 | 0.633
Cc1ccccc1NC(=S)NN1C(=O)CSC1/C=C/c1ccccc1 (centres undefined) | 0.251 | 0.608
COc1ccccc1N1CCN(C(=O)C(C)Nc2ccccn2)CC1 (centres undefined) | 0.248 | 0.62
CC(=O)CS(=O)(=O)c1ccc(Cl)cc1 | 0.259 | 0.614
Cc1ccc(NC(=O)Nc2ccc(C)c(NC(=O)Nc3ccc(C)cc3)c2)cc1 | 0.242 | 0.578
Nc1nc(N)nc(Cc2ccccc2)n1 | 0.25 | 0.622
CC(C)CC(=O)N(NC(=O)c1ccccc1)c1ccccc1 | 0.22 | 0.615
CC(C)(C)c1ccc(S(=O)(=O)Nc2ccc(Oc3ccc(NS(=O)(=O)c4ccc(C(C)(C)C)cc4)cc3)cc2)cc1 | 0.251 | 0.621
CSc1nc(N)nc(N2CCCCC2)n1 | 0.26 | 0.647
